This assay deals with T1, neuroblastoma-associated small protein (NBASP), encoded by ORF1 of FAM201A, with a C-terminal FLAG tag (human) (UniProt Q5SY85).
T1 sequence: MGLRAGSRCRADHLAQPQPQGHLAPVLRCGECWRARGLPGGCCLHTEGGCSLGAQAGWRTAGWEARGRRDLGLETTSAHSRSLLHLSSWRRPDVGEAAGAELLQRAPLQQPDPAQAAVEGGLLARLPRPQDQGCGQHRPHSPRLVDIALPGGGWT
Nature of the assay: co-IP; whole cell lysates; Dynabead Protein G Immunoprecipitation Kit; anti-FLAG and anti-HA antibodies; western blotting. (In general: Immunoblotting shows a protein as a band on a membrane.)

Chains of the proteins cited; added tags and fusions are not shown.
UniProt Q01469: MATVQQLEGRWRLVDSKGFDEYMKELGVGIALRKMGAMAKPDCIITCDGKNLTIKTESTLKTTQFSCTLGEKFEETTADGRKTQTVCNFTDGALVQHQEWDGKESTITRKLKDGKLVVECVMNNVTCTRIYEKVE

No constants are given. Whether binding was seen depends on the method and setting. In cells and extracts the contact can be indirect. Some binding calls cover weakened binding; strength is not graded here. Sequences can lack the tags named with a protein.

For the substance “fatty acid-binding protein 5 (FABP5) (from UniProt Q01469 1-135)”, the binding entry was “binds”.
